Measured values reported in publication PMC3447774, “Genes Encoding Cher-TPR Fusion Proteins Are Predominantly Found in Gene Clusters Encoding Chemosensory Pathways with Alternative Cellular Functions” (PLoS ONE, 2012).
No constants are given. Whether binding was seen depends on the method and setting.

Columns and labels:
[1] = molecular target: WspC-Pp (CheR-TPR methyltransferase WspC of Pseudomonas putida KT2440, ORF PP1490) (Pseudomonas putida KT2440) (UniProt Q88MS8); experiment: AUC; sedimentation velocity, 48000 rpm, 20°C, 50 mM Tris/HCl pH 8.0, 300 mM NaCl, 1 µM DTT; protein 0.25 to 2 mg/ml; without and with SAM (500 µM) or SAH (50 µM); both purified
[2] = molecular target: WspC-Pp (CheR-TPR methyltransferase WspC of Pseudomonas putida KT2440, ORF PP1490) (Pseudomonas putida KT2440) (UniProt Q88MS8); experiment: AUC; sedimentation equilibrium, short column (85 µl), 12000 and 15000 rpm, 20°C; fitted as an ideally sedimenting single solute; both purified

B1: WspC-Pp (CheR-TPR methyltransferase WspC of Pseudomonas putida KT2440, ORF PP1490) (enzyme, UniProt Q88MS8 1-424)
chain: MNEQRFFRFLRERIGLDVESVGAPMVERALRQRCVAAGAMDLDDYWLRLQQSADEQQALIEAVIVPETWFFRYPESFTALASLAHKRLAQLAGARPLRLLSLPCSTGEEPYSLAMALFDAGMAPGAFLVDGMDISPSSVAKAGQAVYGRNAFRGSELGFRERYFDALDEGHRLHERVRQQVSLRVGNVLDPALASRDGLYDFVFCRNLLIYFDVPTQQRVFEVLKRLLHPQGVLFIGPAEGSLLARMGMRPLGIAQSFAYVRHEGDSAPLAAAPAQTAKRAFTTLPAPVYPQPSVPLPRSRRVLPVAARPARAREHSHEGASELLAGIARLANAGASEQARSECQRYLSQYPPSAQVYYWLGLLSDTEGDAQQALSHYRKALYLEPQHPEALVHLAALLAAQGDLAGARRLQERAARAGRESER
- binding [1]: no binding (tested: 0.25 to 2 mg/ml)
- binding [2]: no binding
